Source: PubChem BioAssay AID686937 (Drosophila RNAi Screening Center, 2013)

Purpose: 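Genes whose loss weakens secretory pathway function in fly cells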 (primary screen)
Cells: Drosophila S2 cells expressing secreted horseradish peroxidase
Reagents: long dsRNA against Drosophila genes
Duration: about 5.5 days (5 days dsRNA, then 12 h reporter induction)
Treatment: reporter expression induced after 5 days of dsRNA, read 12 h later; inducer not stated
Detection: 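After 5 days of dsRNA and 12 h of reporter induction, medium peroxidase read by chemiluminescence and scored as per-plate z-score; higher values mean more reporter released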
Direction: z-score: higher = more reporter secreted into medium
In all, the deposit lists about 23,000 reagents; this is an unselected part of those that have a named target and a result. 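Reduced-secretion tags in replicate 1 do not always agree with the z-scores; no criterion for assigning the tags was given.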 The numbers tell different reagents against one gene apart. A plus sign joins genes that one reagent is predicted to hit. Further read-outs or replicates are left out here. The record does not give: the amount of reagent.

What did the screen give for CG13323?
z-score, replicate 1: 0

With CG14866, what was measured?
z-score, replicate 1: 0.47

For CG43446, what does the deposit list?
z-score, replicate 1: 0.04

What is on record for CG42538?
z-score, replicate 1: 0.48

Which result is listed for CG34267?
z-score, replicate 1: 0.56

For CG17778, what does the deposit list?
z-score, replicate 1: -0.9

For lute #1, what was measured?
z-score, replicate 1: 0.27

What is on record for lute #2?
z-score, replicate 1: 0.17

Which result is listed for RpL15 (Ribosomal protein L15)?
z-score, replicate 1: -2.48; phenotype, replicate 1: reduced secretion

Which result is listed for Pfdn2 (Prefoldin 2)?
z-score, replicate 1: 0.19

For CG30047, how do the results read?
z-score, replicate 1: 0.03

With san (separation anxiety), how do the results read?
z-score, replicate 1: -0.93

For CG6015, how do the results read?
z-score, replicate 1: -4.88; phenotype, replicate 1: reduced secretion

With Ir56b (Ionotropic receptor 56b), how do the results read?
z-score, replicate 1: 0.43

For APP-BP1 (beta-Amyloid precursor protein binding protein 1), how do the results read?
z-score, replicate 1: 0.41

With Arl2 (ADP ribosylation factor-like 2), what does the deposit list?
z-score, replicate 1: 0.18

How did the screen score shu (shutdown)?
z-score, replicate 1: 0.44

What did the screen give for CG43308?
z-score, replicate 1: 0.37

For TwdlV (TweedleV), what does the deposit list?
z-score, replicate 1: 0.25

What did the screen give for primo-2 + primo-1?
z-score, replicate 1: 0.43

For Gss1 + Gss2 #1, what was measured?
z-score, replicate 1: 0.44

For Gss1 + Gss2 #2, what was measured?
z-score, replicate 1: 0.51

What did the screen give for Or67a (Odorant receptor 67a)?
z-score, replicate 1: 0.42

What is on record for CG3040?
z-score, replicate 1: 0.07

Which result is listed for edl (ETS-domain lacking)?
z-score, replicate 1: 0.1

What did the screen give for Df31 (Decondensation factor 31) #1?
z-score, replicate 1: 0.14

Which result is listed for Df31 (Decondensation factor 31) #2?
z-score, replicate 1: 0.04

Copied from the entries so far for reference:
lute #2 — z-score, replicate 1 = 0.17
RpL15 (Ribosomal protein L15) — z-score, replicate 1 = -2.48; phenotype, replicate 1 = reduced secretion
Pfdn2 (Prefoldin 2) — z-score, replicate 1 = 0.19
